Results deposited as PubChem BioAssay AID504791 (Drosophila RNAi Screening Center, 2011).
In all, the deposit lists about 23,000 reagents; this is an unselected part of those that have a named target and a result. Over the whole deposit, 199 (0.86%) were called active. 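Plate-scaled ratios behind the calls are not deposited; printed light signals are raw; many rows marked increased or decreased are still called inactive.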 Names joined by + are all predicted targets of the reagent. Not stated in the record: the direction of the score.

Assay: 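Genes of the fly required for silencing by miRNA, siRNA or endo-siRNA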 (primary screen)
Cells: Drosophila S2-derived reporter cells
Knock-down reagent: long dsRNA against Drosophila genes, about 150-250 ng dsRNA per well (siRNA assay); about 80-120 ng (miRNA assay)
Duration: about 5 days (siRNA assay); about 4 days (miRNA assay)
Treatment: copper sulfate induction of reporters: 25 µM (siRNA assay); 200 mM stated (miRNA assay), 1-2 days before reading
Measured: 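Per-well ratio of Renilla over firefly light, expressed relative to that plate's average ratio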
Call rule: 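First-pass picks had plate-scaled ratios over 1.5 for the siRNA assay, over 1.6 for the miRNA assay, or under 0.6; two distinct dsRNAs had to score alike on retest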

gene	DRSC id	stable siRNA reporter change	miRNA reporter change	stable assay Renilla, run 1 (luminescence)	stable assay firefly, run 1 (luminescence)	outcome
CG14692	DRSC14915			5756	3.16e5	inactive
CG13585	DRSC04221			6136	3.89e5	inactive
Mppe	DRSC07296			8682	3.92e5	inactive
CG42331	DRSC14633			4507	3.53e5	inactive
CG42331	DRSC16126			6646	4.14e5	inactive
CG7568	DRSC16259			5763	3.34e5	inactive
CG12194	DRSC00345			9577	5.75e5	inactive
CG15082	DRSC06513			5779	3.76e5	inactive
geminin	DRSC04984			4592	2.61e5	inactive
wrapper	DRSC04723			8310	6.78e5	inactive
CG4962	DRSC10464			7630	4.51e5	inactive
CG3942	DRSC15525			6342	3.92e5	inactive
CG8910	DRSC07414			6472	3.59e5	inactive
CG11060	DRSC06029			39812	1.61e6	inactive
CG14881	DRSC15005			8459	5.20e5	inactive
CG8641	DRSC11028			6487	3.88e5	inactive
kkv	DRSC12315			8115	5.47e5	inactive
Spase25	DRSC19776			8426	5.85e5	inactive
CG10602	DRSC02075			1.71e5	1.60e6	inactive
CG32694	DRSC17844			4719	4.03e5	inactive
CG32694	DRSC17855			6459	4.82e5	inactive
CG32694	DRSC22670			5275	5.84e5	inactive
CG32036	DRSC10362			7655	4.97e5	inactive
brwl	DRSC01080			4135	3.09e5	inactive
brwl	DRSC02729			5272	2.68e5	inactive
ova	DRSC02879			45045	3.02e5	inactive
CG13891	DRSC08361			5846	3.29e5	inactive
Xbp1	DRSC04553			2520	3.27e5	inactive
Xbp1	DRSC21624			8883	4.84e5	inactive
CG33284	DRSC22905			3835	3.53e5	inactive
RanGAP	DRSC22003			8534	5.32e5	inactive
RanGAP	DRSC29400		reporter ratio lowered past the hit cutoff			inactive
Doc2	DRSC22716			5315	4.96e5	inactive
CG13045	DRSC09926			8514	4.23e5	inactive

As entered above.
Value for CG15082 [DRSC06513] in “stable assay Renilla, run 1 (luminescence)”: 5779
CG42331 [DRSC16126], stable assay firefly, run 1 (luminescence) = 4.14e5
For “stable assay Renilla, run 1 (luminescence)”, wrapper [DRSC04723] is entered as 8310
Value of CG13045 [DRSC09926] under “outcome”: inactive
Under “outcome”, Xbp1 [DRSC21624] has inactive
For “stable assay Renilla, run 1 (luminescence)”, Spase25 [DRSC19776] shows 8426

Additional reagents follow.
gene	DRSC id	stable siRNA reporter change	miRNA reporter change	stable assay Renilla, run 1 (luminescence)	stable assay firefly, run 1 (luminescence)	outcome
Pex1	DRSC11358			7875	2.58e5	inactive
GV1	DRSC08228			6152	3.37e5	inactive
phyl	DRSC07663			5910	3.71e5	inactive
CG32259	DRSC08082			5016	3.37e5	inactive
CG15322	DRSC20680			4119	2.47e5	inactive
CG15322	DRSC23023			4655	3.15e5	inactive
Npc2e	DRSC15522			6163	3.40e5	inactive
Npc2e	DRSC22338			8719	5.65e5	inactive
CG13360	DRSC18536	reporter ratio lowered past the hit cutoff		2728	3.39e5	inactive
CG13360	DRSC28479		reporter ratio lowered past the hit cutoff			inactive
CG2147	DRSC18211			7894	5.70e5	inactive
frac	DRSC10867			8396	4.41e5	inactive
CG11151	DRSC19387			5227	5.39e5	inactive
CR33283	DRSC22918			3124	3.52e5	inactive
cora	DRSC07597			5895	3.55e5	inactive
Not10	DRSC14129			7187	3.69e5	inactive
CG1909	DRSC17150			5076	4.57e5	inactive
vlc	DRSC04922			7338	4.62e5	inactive
CG8500	DRSC16434			6762	3.64e5	inactive
AIMP1	DRSC07118			6287	4.05e5	inactive
Ephrin	DRSC17165			6183	3.00e5	inactive
gd	DRSC20336			6020	4.05e5	inactive
Femcoat	DRSC18061			4566	2.34e5	inactive
ppk9	DRSC04134			7203	4.40e5	inactive
ppk9	DRSC04135			6451	3.67e5	inactive
CaBP1	DRSC01984			28135	1.24e6	inactive
CG12659	DRSC17862			5579	3.20e5	inactive
GstE1	DRSC07437			7135	3.99e5	inactive
CG18598	DRSC15356			10107	4.48e5	inactive
CG4907	DRSC15673			6328	3.37e5	inactive
CG13293	DRSC09967			6718	3.93e5	inactive
Cyp313a1	DRSC16624			7272	3.57e5	inactive
Nplp3	DRSC09944			7011	4.24e5	inactive
Clamp	DRSC03718			9005	2.51e5	inactive
Clamp	DRSC21682			8807	3.97e5	inactive
pgc	DRSC04099	reporter ratio lowered past the hit cutoff		6906	7.23e5	inactive
CG9890	DRSC04590			5596	3.23e5	inactive
CG13443	DRSC06403			6578	3.68e5	inactive
Yif1	DRSC15817			6155	4.20e5	inactive
gprs	DRSC06761			6211	2.36e5	inactive
CG14306 (retired record)	DRSC14785			7406	3.43e5	inactive
Acp32CD	DRSC01858			7151	3.84e5	inactive
MstProx + Mst84Da	DRSC12597			6690	6.21e5	inactive
dind	DRSC16294			10604	5.43e5	inactive
boca	DRSC06408			6271	3.47e5	inactive
Alg9	DRSC14407			9809	4.18e5	inactive
p	DRSC16560			8070	5.24e5	inactive
Chchd3	DRSC16981			6043	3.91e5	inactive
eIF2beta	DRSC11341	reporter ratio lowered past the hit cutoff	reporter ratio raised past the hit cutoff	5408	7.22e5	inactive
